# Measurements taken from US20240270840A1 (NECTIN THERAPEUTICS, published 2024).
# Where a chain is given by its changes, count along the chain named. Names may count otherwise. These are yes or no findings as the source states them, for the method shown. Some binding calls cover weakened binding; strength is not graded here.
# T1: Human CD112R expressed on cells (human, UniProt Q6DKI7 1-326)
# T1 construct: whole, on cells; also called HuCD112R; hCD112R
# T1 sequence (looked up): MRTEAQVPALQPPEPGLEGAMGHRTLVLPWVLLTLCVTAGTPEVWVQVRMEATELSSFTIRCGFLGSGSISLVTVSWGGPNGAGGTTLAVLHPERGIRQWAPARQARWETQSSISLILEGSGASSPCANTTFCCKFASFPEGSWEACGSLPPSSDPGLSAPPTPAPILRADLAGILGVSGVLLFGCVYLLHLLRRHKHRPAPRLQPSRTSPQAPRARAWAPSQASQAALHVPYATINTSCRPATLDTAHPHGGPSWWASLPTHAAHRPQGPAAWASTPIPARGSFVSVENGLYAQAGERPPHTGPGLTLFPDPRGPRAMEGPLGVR
# T2: Human CD112R (PVRIG) (human, UniProt Q6DKI7 41-171, limits assumed)
# T2 sequence (looked up): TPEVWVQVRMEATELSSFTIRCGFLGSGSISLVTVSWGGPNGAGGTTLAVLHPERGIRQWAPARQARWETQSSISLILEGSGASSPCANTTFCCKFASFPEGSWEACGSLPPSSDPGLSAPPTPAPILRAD
# B1: anti-CD112R mAb clone 13 (murine, hybridoma) (antibody, mouse IgG1, V domains shown)
# VH: QVQLQQPGAELVKPGTSVKLSCKASGYNFTSYWINWVKLRPGQGLEWIGDIYPGSYIPNYNEKFKNKATLTVDTSSSTAYMQLTSLASEDSALYYCAGGYFDVWGAGTTVTVSS
# VL: DIVMTQSPSSLSVSAGEKVTMSCKSSQSLLNSGNQKNYLAWYQQKPGQPPKLLIYGASTRESGVPDRFTGSGSGTDFTLTISSVQAEDLAVYYCQNDHSYPYTFGGGTKLEIK
# B2: Clone 15 (antibody, V domains shown)
# VH: B1 VH with Y52F, I57S, E62K, N66R, T84S
# VL: B1 VL with N34S, S83F
# B3: chimeric clone-13(N31S)-hIgG1 (VH0K0) (antibody, V domains shown)
# VH: B1 VH
# VL: B1 VL with N31S
# notes: Chimeric, human IgG1; Light chain with N31S (deamidation removal), also denoted N27dS by Kabat numbering; also called clone N31S; VH0Vk0
# B4: Clone-13-hIgG1 (antibody, V domains shown)
# VH: B1 VH
# VL: B1 VL
# notes: Chimeric antibody with human IgG1 constant region; also called chimeric clone (clone 13)
# B5: VH10K3 (full humanized antibody) (antibody, V domains shown)
# VH: QVQLVQSGAEVKKPGSSVKVSCKASGYTFTSYWINWVRQAPGQGLEWIGDIYPGSYIPNYNEKFKNRATLTVDTSASTAYMELSSLASEDTALYYCAGGYFDVWGQGTTVTVSS
# VL: DIVMTQSPDSLAVSLGERATINCKSSQSLLSSGNQKNYLAWYQQKPGQPPKLLIYGASTRESGVPDRFSGSGSGTDFTLTISSLQAEDVAVYYCQNDHSYPYTFGQGTKLEIK
# notes: Humanized full antibody, human IgG1
# B6: H11K1 (full humanized antibody) (antibody, V domains shown)
# VH: B5 VH with A87R, L93V
# VL: B5 VL with A12S, S69T
# notes: Humanized full antibody, human IgG1; also called VH11K1
# B7: VH10K2 (full humanized antibody) (antibody, V domains shown)
# VH: B5 VH
# VL: B5 VL with S69T
# notes: as for B5
# B8: H11K2 (full humanized antibody) (antibody, V domains shown)
# VH: B5 VH with A87R, L93V
# VL: B5 VL with S69T
# notes: Humanized full antibody, human IgG1; also called VH11K2
# B9: H11K3 (full humanized antibody) (antibody, V domains shown)
# VH: B5 VH with A87R, L93V
# VL: B5 VL
# notes: Humanized full antibody comprising hIgG1 Fc; also called VH11K3
# B10: VH0K1 N28T (antibody, V domains shown)
# VH: B1 VH with N28T
# VL: B5 VL with A12S, S69T
# B11: VH0K3 N28T (antibody, V domains shown)
# VH: B1 VH with N28T
# VL: B5 VL
# B12: VH11K0 (antibody, V domains shown)
# VH: B5 VH with A87R, L93V
# VL: B1 VL with N31S
# B13: VH9K0 (antibody, V domains shown)
# VH: B5 VH with R38K, Q39L, A87R, L93V
# VL: B1 VL with N31S
# B14: VH0K2 N28T (antibody, V domains shown)
# VH: B1 VH with N28T
# VL: B5 VL with S69T
# B15: VH10K1 (antibody, V domains shown)
# VH: B5 VH
# VL: B5 VL with A12S, S69T
# B16: VH9K1 (antibody, V domains shown)
# VH: B5 VH with R38K, Q39L, A87R, L93V
# VL: B5 VL with A12S, S69T
# B17: VH9K2 (antibody, V domains shown)
# VH: B5 VH with R38K, Q39L, A87R, L93V
# VL: B5 VL with S69T
# B18: VH9K3 (antibody, V domains shown)
# VH: B5 VH with R38K, Q39L, A87R, L93V
# VL: B5 VL
# B19: VH10K0 (antibody, V domains shown)
# VH: B5 VH
# VL: B1 VL with N31S
# B20: VH0 N28T Vk0 (antibody, V domains shown)
# VH: B1 VH with N28T
# VL: B1 VL with N31S
# notes: Variant of VH0K0; also called VH0K0 N28T
# Target: T1, Human CD112R expressed on cells
# Experiment: FACS, hybridoma supernatant 30 ul/well on human NK cells, goat anti-mouse-647
row,binding,Binder
1,binds,B1
2,binds,B2

# Target: T1, Human CD112R expressed on cells
# Experiment: flow cytometry on 293T cells overexpressing CD112R, 0.4-99 nM
row,binding,Binder
1,binds,B3
2,binds,B4

# Target: T1, Human CD112R expressed on cells
# Experiment: flow cytometry, hybridoma supernatant (30 ul/well) on activated PBMCs and NK cells
row,binding,Binder
1,binds,B1
2,binds,B2

# Target: T1, Human CD112R expressed on cells
# Experiment: FACS, hybridoma supernatant 30 ul/well on PBMCs activated for 96 h (T cells), goat anti-mouse-647
row,binding,Binder
1,binds,B1
2,binds,B2

# Target: T1, Human CD112R expressed on cells
# Experiment: flow cytometry on cells with endogenous or overexpressed CD112R
row,binding,Binder
1,binds,B5
2,binds,B6
3,binds,B7
4,binds,B8
5,binds,B9

# Target: T2, Human CD112R (PVRIG)
# Experiment: SPR (Biacore); purified full antibody
row,binding,Binder
1,binds,B10
2,binds,B11
3,binds,B5
4,binds,B6
5,binds,B12
6,binds,B13
7,binds,B14
8,binds,B15
9,binds,B16
10,binds,B17
11,binds,B18
12,binds,B19
13,binds,B7
14,binds,B20
15,binds,B8
16,binds,B9

# Target: T1, Human CD112R expressed on cells
# Experiment: flow cytometry, hybridoma supernatant on activated PBMCs and NK cells
row,binding,Binder
1,binds,B1
2,binds,B2

# Target: T1, Human CD112R expressed on cells
# Experiment: FACS (APC-H), 293T hCD112R against 293T parental cells, mAb at 66 nM
row,binding,Binder
1,binds,B3
2,binds,B4
